Reference: patent US8722376B2, “Firefly luciferase” (Olympus Corporation, priority 2011, dated 2014)

Experiment: Measurement of luminescence spectra of purified luciferase at various pHs
Type: biochemical

B1: SP1 luciferase: luciferase of SEQ ID NO: 1 derived from Malaysian firefly Luciola sp1 (protein, listed as Luciola sp.)
chain: MNNMDDGEHIVVGPQPFYPVEEGSAGTQLLKYLKQYSKLGAIAFSNAHTKVDISYAEYLDTSVRLAQALINYGIPIDGRIALCSENCEEFYFPVLAGLYIGAGVAPTNEIYTLRELVHSLGISKPTIVFSSKKGLEKVITVQKTVTCIKTIVILDSKVDYQGYDCLETFIKKYLPAGFSVENFIPREVNRKEQVALVMNSSGSTGLPKGVQITHEGAVTRFSHARDPIYGNQVSPGTAILTIVPFHHGFGMFTNLGYLTCGYRIVMLTKFDEELFLKTLADYKCTSVILVPTLFAILSKSVLLEKYDLSNLVEIASGGAPLAKEVGEAVARRFNLPGIRQGYGLTETTSAIIITPEGDDKPGASGKIVPLFRAKVVDLDTQKTLGPNRRGEICVKGPMLMKGYVDDPVATSQIIDKDGWLHTGDIGYFDEDKHFFIVDRLKSLIKYKGYQVPPAELESVLLQHPDIFDAGVAGLPDPLAGELPGAVVVLEKGRHMTEQQVMDYVAGQVSNAKRLRGGVRFVDEVPKGLTGKIDSKAIREILKSPKAKM
For B1, the maximum luminescent wavelength (pH 6.0) was ~609 nm, the “pH at which the maximum luminescent intensity was confirmed” value (pH 6.0-8.0 tested) was 7.5 and the maximum luminescent wavelength (pH 6.5) was ~606 nm. The maximum luminescent wavelength (pH 7.0) was ~598 nm, the maximum luminescent wavelength (pH 7.5) was “approximately 587 nm” and the maximum luminescent wavelength (pH 8) was “approximately 580 nm”.

A unit is not stated for every read-out.
